Data published in patent US20220211681A1, “COMPOSITIONS AND METHODS FOR PREVENTING INFLAMMATORY CONDITIONS” (Trustees of Tufts College, priority 2019, published 2022).

Experiment: Final body weight, body composition (MRI) and general observation of HFD-fed, AOM-treated FVB mice
Format: in vivo
Conditions: mean ± SE

Cc1ncc(CO)c(CO)c1O.Cl [B6, pyridoxine hydrochloride]
% Fat Mass (MRI at 21 weeks after arrival): 32 ± 1.37 ^ab % | % Lean Mass (MRI at 21 weeks after arrival): 64 ± 1.29 ^ab % | Final body weight (g) (agent in diet (CUR 0.2% w/w, B6 24 mg/kg)): 36.11 ± 0.69 ^ab g
